System: FAR-1
Assay: Fluorescence titration, FAR•analyte complex formation in homogeneous solution
Type: binding
Settings: FAR-1; 10 mM HEPES buffer (pH 7)
Protocol: (§1) Fluorescence titrations were carried out in aqueous HEPES buffer (10 mM, pH 7, 22 °C) unless stated otherwise. To a solution of the FAR (typically at 10–30 μM) was stepwise added a solution of the analyte (typically up to 2 mM) and the fluorescence spectra were recorded. The normalized emissions at 450 nm (FAR-1) or at 370 nm (FAR-2) were fitted with an equation for a 1 : 1 binding by a least-square fit. The resulting affinity constants are reported in Supplementary Table 1. Representative titration plots are shown in Supplementary Fig. 1. Note that the high CB8-dye binding affinities correspond to a near quantitative degree of host-dye complexation, i.e., quantitative formation of the FAR, such that the subsequent binding of the analyte can be treated independently.

Row | Compound | QE (quenching efficiency)
1 | CC(C)NCC(O)COc1cccc2ccccc12 (stereo not shown) [propranolol, reference compound] | > 0.9
2 | NCCc1ccccc1 [phenethylamine] | 0.4
3 | O=C1C=CC(=O)C=C1 [1,4-benzoquinone] | > 0.9
4 | c1ccccc1 [benzene] | < 0.3
5 | CCC(=O)Nc1ccc(Cl)c(Cl)c1 [propanil] | > 0.9
6 | O=C(O)Cc1cc(O)ccc1O [homogentisic acid] | > 0.9
7 | CCCN(CCOc1c(Cl)cc(Cl)cc1Cl)C(=O)n1ccnc1 [prochloraz] | 0.7
8 | Nc1ccccc1 [Aniline, aniline] | 0.9
9 | NCCc1c[nH]c2ccc(O)cc12 [Serotonin, serotonin] | > 0.9
10 | COc1ccc2cc([C@H](C)C(=O)O)ccc2c1 [naproxen, reference compound] | 0.5
11 | C=C(C)[C@H]1Cc2c(ccc3c2O[C@@H]2COc4cc(OC)c(OC)cc4[C@@H]2C3=O)O1 [rotenone] | 0.7
12 | NCCc1c[nH]c2ccccc12 [Tryptamine, tryptamine] | > 0.9

Same assay, conditions: pH 7

Row | Compound | QE (quenching efficiency)
13 | Oc1ccccc1 [Phenol, phenol] | > 0.9

System: FAR-2
Assay: as above
Type: binding
Settings: not given
Protocol: as §1, with “1.” for “1. Note that the high CB8-dye binding affinities correspond to a near quantitative degree of host-dye complexation, i.e., quantitative formation of the FAR, such that the subsequent binding of the analyte can be treated independently.”

Row | Compound | QE (quenching efficiency)
14 | CCOc1ccc(O)cc1 [4-ethoxyphenol] | > 0.9
15 | Oc1ccc2cc(O)ccc2c1 [2,6-dihydroxynapthalene] | > 0.9
16 | Oc1ccc2ccccc2c1 [2-naphthol] | > 0.9
17 | Oc1ccc(I)cc1 [4I-phenol, 4-iodophenol] | > 0.9
18 | Oc1ccc2c(c1)OCO2 [sesamol] | > 0.9
19 | N#Cc1ccc(O)cc1 [4CN-phenol, 4-cyanophenol] | > 0.9
20 | COc1ccc(O)cc1 [4-methoxyphenol] | > 0.9
21 | COc1ccc(B(O)O)cc1 [p-anisylboronic acid] | > 0.9
22 | N#Cc1ccccc1O [2CN-phenol, 2-cyanophenol] | > 0.9
23 | Oc1ccc2ccc(O)cc2c1 [2,7-dihydroxynapthalene, 2,7-dihydroxynaphthalene] | > 0.9
24 | Oc1ccccc1 [Phenol, phenol] | > 0.9
25 | c1ccc2[nH]ccc2c1 [Indole, indole] | > 0.9
26 | Nc1ccccc1 [Aniline, aniline] | > 0.9
27 | N[C@@H](Cc1c[nH]c2ccccc12)C(=O)O [Trp, tryptophan] | > 0.9
28 | Oc1ccc(O)cc1 [1,4-dihydroxybenzene] | > 0.9

System: not listed separately
Assay: Binding to CB7 (dye-displacement titrations, ITC, literature)
Settings: dye-displacement titration, dye AO

Row | Compound | QE (total change in fluorescence intensity upon complete displacement of the dye)
29 | NCCc1ccccc1 [phenethylamine] | > 0.9
30 | NCCCCCN [cadaverine] | > 0.9
31 | N[C@@H](Cc1ccccc1)C(=O)O [Phe, phenylalanine] | > 0.9

Same assay, conditions: dye-displacement titration, dye BE

Row | Compound | QE (total change in fluorescence intensity upon complete displacement of the dye)
32 | NCCCNCCCCNCCCN [spermine] | 0.9
33 | CN1CCC[C@H]1c1cccnc1 [nicotine] | 0.9

Same assay, conditions: dye-displacement titration, dye DAPI

Row | Compound | QE (total change in fluorescence intensity upon complete displacement of the dye)
34 | NCCc1ccc(O)cc1 [tyramine] | 0.8
35 | NCCc1c[nH]c2ccccc12 [Tryptamine, tryptamine] | 0.8

Same assay, conditions: dye-displacement titration, dye PAL

Row | Compound | QE (total change in fluorescence intensity upon complete displacement of the dye)
36 | CN(C)Cc1ccccc1 [N,N-dimethylbenzylamine] | > 0.9
37 | Cc1ncc(C[n+]2csc(CCO)c2C)c(N)n1 [vitamin B1] | > 0.9

Reference: PMC7363885, “Fluorescent artificial receptor-based membrane assay (FARMA) for spatiotemporally resolved monitoring of biomembrane permeability” (Communications Biology, 2020)
